From publication doi:10.1101/2020.10.06.327742 (bioRxiv, 2020)
Results are given in words; binding and its absence hold for the method and conditions named.

Molecular target: T1, FITC-labelled ACE2 peptide with the predicted PTB binding motif (FITC-…-NH2) (human)
T1 sequence (peptide, FITC on the N-terminus; C-terminal amide (NH2)): SKGENNPGFQNT
Experiment: fluorescence polarisation

Substance: DOK1 PTB domain (domain or fragment)
- binding: no binding
